Experimental data from publication PMC9118923.
Results are given in words; binding and its absence hold for the method and conditions named. In cells and extracts the contact can be indirect. Some entries that bind do so weakly or less than the wild type.

The chains behind the UniProt entries cited, without tags or fusion partners. Where a name states a change or a piece, a line headed by the entry shows the natural chain unless it says otherwise. Residues count along the entry.
UniProt Q14738: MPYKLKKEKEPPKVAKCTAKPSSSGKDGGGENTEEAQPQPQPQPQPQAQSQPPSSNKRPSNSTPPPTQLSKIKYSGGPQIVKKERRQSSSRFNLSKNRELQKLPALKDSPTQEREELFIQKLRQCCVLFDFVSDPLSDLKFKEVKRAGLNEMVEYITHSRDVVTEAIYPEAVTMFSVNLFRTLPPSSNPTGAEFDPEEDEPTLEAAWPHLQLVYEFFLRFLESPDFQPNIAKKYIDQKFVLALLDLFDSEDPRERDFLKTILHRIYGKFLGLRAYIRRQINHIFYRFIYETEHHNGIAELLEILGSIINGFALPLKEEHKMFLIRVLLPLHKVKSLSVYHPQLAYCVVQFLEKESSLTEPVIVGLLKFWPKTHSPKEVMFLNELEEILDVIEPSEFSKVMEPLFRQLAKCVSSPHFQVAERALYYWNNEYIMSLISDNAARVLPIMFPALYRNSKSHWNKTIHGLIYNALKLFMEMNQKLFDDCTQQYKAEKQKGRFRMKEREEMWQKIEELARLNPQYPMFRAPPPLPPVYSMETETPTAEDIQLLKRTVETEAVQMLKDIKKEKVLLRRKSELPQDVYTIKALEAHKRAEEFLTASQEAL
UniProt Q15172: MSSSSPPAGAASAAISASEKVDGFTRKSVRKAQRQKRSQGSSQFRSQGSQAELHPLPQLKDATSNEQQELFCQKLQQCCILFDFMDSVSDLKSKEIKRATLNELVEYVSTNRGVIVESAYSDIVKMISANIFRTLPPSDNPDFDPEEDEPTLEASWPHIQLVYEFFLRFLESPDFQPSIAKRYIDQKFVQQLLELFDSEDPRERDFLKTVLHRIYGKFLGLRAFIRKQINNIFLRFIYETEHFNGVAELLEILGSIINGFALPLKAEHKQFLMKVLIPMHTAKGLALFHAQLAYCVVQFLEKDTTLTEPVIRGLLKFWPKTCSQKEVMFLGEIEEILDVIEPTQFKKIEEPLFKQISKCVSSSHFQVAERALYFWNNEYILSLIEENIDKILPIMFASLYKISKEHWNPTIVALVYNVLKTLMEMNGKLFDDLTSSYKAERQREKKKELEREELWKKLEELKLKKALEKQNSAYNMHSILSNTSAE
UniProt P67775: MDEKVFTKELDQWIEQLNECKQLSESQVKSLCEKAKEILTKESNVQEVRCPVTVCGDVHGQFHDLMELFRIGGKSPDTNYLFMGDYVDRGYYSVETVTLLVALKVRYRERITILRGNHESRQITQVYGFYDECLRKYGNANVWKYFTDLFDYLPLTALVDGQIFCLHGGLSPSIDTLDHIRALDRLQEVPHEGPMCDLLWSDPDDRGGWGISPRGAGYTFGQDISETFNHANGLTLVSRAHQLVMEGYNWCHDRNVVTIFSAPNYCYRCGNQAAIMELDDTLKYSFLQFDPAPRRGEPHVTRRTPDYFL
UniProt P08183: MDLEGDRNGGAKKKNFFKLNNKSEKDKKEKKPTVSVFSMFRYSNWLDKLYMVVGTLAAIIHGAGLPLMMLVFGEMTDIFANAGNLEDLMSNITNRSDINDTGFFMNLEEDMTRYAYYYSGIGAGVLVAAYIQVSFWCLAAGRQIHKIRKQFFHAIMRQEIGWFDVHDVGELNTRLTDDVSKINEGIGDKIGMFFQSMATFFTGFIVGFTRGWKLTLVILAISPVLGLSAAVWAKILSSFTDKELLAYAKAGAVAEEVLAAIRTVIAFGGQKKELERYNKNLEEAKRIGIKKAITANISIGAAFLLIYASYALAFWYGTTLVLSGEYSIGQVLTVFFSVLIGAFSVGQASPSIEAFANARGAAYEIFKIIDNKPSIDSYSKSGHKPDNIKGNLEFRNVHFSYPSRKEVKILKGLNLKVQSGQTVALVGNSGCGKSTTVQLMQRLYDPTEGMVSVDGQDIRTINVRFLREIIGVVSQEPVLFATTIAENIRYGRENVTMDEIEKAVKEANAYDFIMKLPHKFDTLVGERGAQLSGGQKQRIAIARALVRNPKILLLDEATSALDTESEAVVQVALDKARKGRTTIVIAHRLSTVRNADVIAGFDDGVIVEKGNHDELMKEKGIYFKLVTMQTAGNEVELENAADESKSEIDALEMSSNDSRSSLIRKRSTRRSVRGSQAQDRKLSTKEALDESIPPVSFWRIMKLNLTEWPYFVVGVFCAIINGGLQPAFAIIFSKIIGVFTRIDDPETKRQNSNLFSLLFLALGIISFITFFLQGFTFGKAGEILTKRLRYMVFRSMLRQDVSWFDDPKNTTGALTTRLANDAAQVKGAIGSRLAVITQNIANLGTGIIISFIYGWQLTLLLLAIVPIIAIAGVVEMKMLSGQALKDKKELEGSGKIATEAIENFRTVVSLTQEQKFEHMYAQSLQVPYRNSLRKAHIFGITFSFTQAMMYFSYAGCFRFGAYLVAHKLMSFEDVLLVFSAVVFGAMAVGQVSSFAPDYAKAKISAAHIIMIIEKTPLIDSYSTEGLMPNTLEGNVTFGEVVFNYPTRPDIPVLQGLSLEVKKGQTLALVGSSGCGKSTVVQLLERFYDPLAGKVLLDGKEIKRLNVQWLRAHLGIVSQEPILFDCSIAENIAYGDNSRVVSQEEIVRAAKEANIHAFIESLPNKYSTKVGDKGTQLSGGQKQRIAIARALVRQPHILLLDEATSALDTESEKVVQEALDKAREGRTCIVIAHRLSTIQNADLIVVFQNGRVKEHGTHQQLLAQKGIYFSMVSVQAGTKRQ
UniProt P35869, residues 11-848: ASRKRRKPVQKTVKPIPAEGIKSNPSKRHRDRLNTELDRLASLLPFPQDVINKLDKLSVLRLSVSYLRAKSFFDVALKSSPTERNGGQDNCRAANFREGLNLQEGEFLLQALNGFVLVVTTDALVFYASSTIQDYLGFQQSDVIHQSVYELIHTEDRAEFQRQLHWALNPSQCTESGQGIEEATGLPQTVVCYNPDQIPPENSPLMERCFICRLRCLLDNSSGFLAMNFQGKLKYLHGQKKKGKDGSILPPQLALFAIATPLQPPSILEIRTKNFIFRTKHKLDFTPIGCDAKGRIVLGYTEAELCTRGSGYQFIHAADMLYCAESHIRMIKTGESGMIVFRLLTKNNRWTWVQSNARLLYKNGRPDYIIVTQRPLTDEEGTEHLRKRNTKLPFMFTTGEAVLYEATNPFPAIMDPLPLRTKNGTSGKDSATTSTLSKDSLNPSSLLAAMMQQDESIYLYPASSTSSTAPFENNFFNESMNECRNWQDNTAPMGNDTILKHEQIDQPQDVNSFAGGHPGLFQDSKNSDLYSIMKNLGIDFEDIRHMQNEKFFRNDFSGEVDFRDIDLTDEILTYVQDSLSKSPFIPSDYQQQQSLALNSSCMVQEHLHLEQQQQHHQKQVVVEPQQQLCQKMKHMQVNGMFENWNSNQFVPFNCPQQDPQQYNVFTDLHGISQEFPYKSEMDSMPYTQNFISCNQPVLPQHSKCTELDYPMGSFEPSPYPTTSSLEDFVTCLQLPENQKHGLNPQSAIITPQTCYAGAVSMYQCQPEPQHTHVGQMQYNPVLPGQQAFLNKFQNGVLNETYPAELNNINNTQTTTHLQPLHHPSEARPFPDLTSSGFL

Tests used:
[1] = target: PP2A B56δ subunit (human (endogenous in HepG2/ADR)) (UniProt Q14738); assay: co-IP; HepG2/ADR cell lysate (RIPA buffer), about 3 mg supernatant with antibodies against MDR1 and B56δ overnight at 4 °C, protein G-Sepharose, immunoblot
[2] = target: PP2A B56α subunit (human (endogenous in HepaRG)) (UniProt Q15172); assay: co-IP; endogenous proteins in HepaRG cell lysate (RIPA buffer with protease and phosphatase inhibitors), about 3 mg supernatant with antibody against PP2A Cα or B56α overnight at 4 °C, protein G-Sepharose 2 h, immunoblot; cells treated with 20 μM BaP
[3] = target: PP2A Cα subunit (human (endogenous in HepaRG)) (UniProt P67775); assay: as above

| Substance | binding [1] | binding [2] | binding [3] |
| --- | --- | --- | --- |
| MDR1 (encoded by multi-drug resistance gene 1), human (from UniProt P08183 1-1280) | binds |  |  |
| aryl hydrocarbon receptor (from UniProt P35869 11-848) |  | binds | binds |
